Experimental data taken from patent US12491217B2, “Compositions and methods for promoting healthy neural development in an unborn baby” (The Regents of the University of California, priority 2019, dated 2025).

Assay: Metabolomics of fetal brain at E14.5
Format: in vivo, C57Bl/6J mice
Details: metabolite level in E14.5 fetal brain; for fold of change ABX/SPF: ANOVA contrast ABX/SPF; for fold of change GF/ABX: ANOVA contrast GF/ABX; for fold of change GF/SPF: ANOVA contrast GF/SPF; for fold of change GF/Sp: ANOVA contrast GF/Sp; for fold of change Sp/ABX: ANOVA contrast Sp/ABX; for fold of change Sp/SPF: ANOVA contrast Sp/SPF

Structure (SMILES) | fold of change ABX/SPF | fold of change GF/ABX | fold of change GF/SPF | fold of change GF/Sp | fold of change Sp/ABX | fold of change Sp/SPF
O=C[C@H](O)[C@H](O)[C@H](O)COP(=O)(O)O [compound 983] | 1.23 | 0.99 | 1.22 | 0.98 | 1.00 | 1.24
O=P(O)(O)OC1OC(CO)C(O)C1O (centres unmarked) [compound 984] | 1.12 | 1.00 | 1.12 | 0.99 | 1.01 | 1.13
O=C(CO)[C@@H](O)[C@H](O)[C@H](O)[C@H](O)COP(=O)(O)O [compound 986] | 0.68 | 1.12 | 0.76 | 0.95 | 1.17 | 0.80
O=C[C@H](O)[C@H](O)[C@H](O)CO [compound 993] | 0.94 | 0.93 | 0.87 | 1.19 | 0.78 | 0.73
OC[C@@H](O)[C@@H](O)[C@@H](O)CO [compound 994] | 0.67 | 1.23 | 0.83 | 1.15 | 1.07 | 0.72
O=C(O)C(O)C(O)C(O)CO (centres unmarked) [compound 995] | 0.86 | 1.04 | 0.89 | 1.07 | 0.97 | 0.83
O=C(CO)[C@@H](O)[C@H](O)COP(=O)(O)O [compound 997] | 0.72 | 0.94 | 0.68 | 0.91 | 1.03 | 0.74
OCC(O)C(O)C(O)CO (centres unmarked) [compound 1018] | 0.61 | 1.25 | 0.77 | 0.88 | 1.42 | 0.87
O=C(O)C(O)C(O)C(O)CO (centres unmarked) [compound 1020] | 0.59 | 1.12 | 0.66 | 0.93 | 1.20 | 0.71
O=C(CO)C(O)C(O)C(O)C(O)CO (centres unmarked) [compound 1023] | 0.66 | 1.12 | 0.74 | 0.93 | 1.20 | 0.79
OCC1OC(OC2C(CO)OC(OC3C(CO)OC(OC4C(CO)OC(O)C(O)C4O)C(O)C3O)C(O)C2O)C(O)C(O)C1O (centres unmarked) [compound 1028] | 0.58 | 1.04 | 0.61 | 0.84 | 1.24 | 0.72
OCC1OC(OC2C(CO)OC(OC3C(CO)OC(O)C(O)C3O)C(O)C2O)C(O)C(O)C1O (centres unmarked) [compound 1030] | 0.53 | 1.14 | 0.61 | 0.88 | 1.30 | 0.69
OCC1OC(OC2C(CO)OC(O)C(O)C2O)C(O)C(O)C1O (centres unmarked) [compound 1033] | 0.52 | 1.31 | 0.69 | 1.02 | 1.28 | 0.67
O=C(CO)[C@@H](O)[C@H](O)[C@H](O)CO [compound 1073] | 0.64 | 1.66 | 1.06 | 1.20 | 1.38 | 0.88
OCC1OC(O)C(O)C(O)C1O (centres unmarked) [compound 1079] | 0.56 | 1.56 | 0.87 | 1.40 | 1.11 | 0.62
O=P(O)(O)OC1OC(CO)C(O)C(O)C1O (centres unmarked) [compound 1090] | 0.38 | 1.71 | 0.64 | 0.98 | 1.75 | 0.66
O=C(O)C(O)C(O)C(O)C(O)CO (centres unmarked) [compound 1099] | 0.74 | 0.99 | 0.74 | 0.96 | 1.03 | 0.77

Structure (SMILES) | fold of change ABX/SPF | fold of change GF/ABX | fold of change GF/SPF | fold of change GF/Sp | fold of change Sp/ABX | fold of change Sp/SPF
O=C(O)C1OC(OP(=O)(O)OP(=O)(O)OCC2OC(n3ccc(=O)[nH]c3=O)C(O)C2O)C(O)C(O)C1O (centres unmarked) [compound 1109] | 0.89 | 1.01 | 0.91 | 0.92 | 1.10 | 0.98
CC1OC(OP(=O)(O)OP(=O)(O)OCC2OC(n3cnc4c(=O)[nH]c(N)nc43)C(O)C2O)C(O)C(O)C1O (centres unmarked) [compound 1111] | 0.39 | 1.61 | 0.62 | 1.05 | 1.53 | 0.59
CC(=O)NC1C(OP(=O)(O)OP(=O)(O)OCC2OC(n3ccc(=O)[nH]c3=O)C(O)C2O)OC(CO)C(O)C1O (centres unmarked) [compound 1115] | 0.81 | 1.05 | 0.85 | 0.96 | 1.10 | 0.89
CC(=O)NC1C(O)CC(OP(=O)(O)OCC2OC(n3ccc(N)nc3=O)C(O)C2O)(C(=O)O)OC1C(O)C(O)CO (centres unmarked) [compound 1116] | 0.68 | 1.09 | 0.74 | 1.02 | 1.07 | 0.73
N[C@H]1C(O)O[C@H](COP(=O)(O)O)[C@@H](O)[C@@H]1O (some centres unmarked) [compound 1123] | 0.50 | 1.55 | 0.78 | 0.92 | 1.68 | 0.84
O=CC(O)C(O)C(O)C(O)C(=O)O (centres unmarked) [compound 1127] | 0.83 | 1.03 | 0.85 | 0.99 | – | 0.86
CC(=O)N[C@H]1C(O)O[C@H](COP(=O)(O)O)[C@@H](O)[C@@H]1O (some centres unmarked) [compound 1131] | 0.53 | 1.13 | 0.59 | 1.12 | 1.00 | 0.53
CC(=O)N[C@H]1C(OP(=O)(O)O)O[C@H](CO)[C@@H](O)[C@@H]1O (some centres unmarked) [compound 1132] | 1.10 | 0.73 | 0.80 | 0.98 | 0.74 | 0.82
CC(=O)N[C@H]1[C@H]([C@H](O)[C@H](O)CO)O[C@](O)(C(=O)O)C[C@@H]1O [compound 1138] | 0.84 | 0.95 | 0.80 | 0.93 | 1.03 | 0.87
CC(=O)N[C@@H]1[C@@H](O)[C@H](O)[C@@H](CO)O[C@H]1NC(=O)C[C@H](N)C(=O)O [compound 1149] | 0.80 | 1.03 | 0.82 | 0.99 | 1.03 | 0.82
O=C(O)C(O)C(O)CO (centres unmarked) [compound 1150] | 0.74 | 1.04 | 0.77 | 1.01 | 1.02 | 0.76
O=C(O)CC(O)(CC(=O)O)C(=O)O [compound 1157] | 0.94 | 1.18 | 1.10 | 1.07 | 1.10 | 1.03
O=C(O)CCC(=O)C(=O)O [compound 1163] | 1.11 | 1.21 | 1.35 | 1.16 | 1.04 | 1.16
C[N+](C)(C)CC(CC(=O)[O-])OC(=O)CCC(=O)O (centres unmarked) [compound 1165] | 0.75 | 0.94 | 0.71 | 1.09 | 0.87 | 0.65
O=C(O)CCC(=O)O [compound 1166] | 1.11 | 1.23 | 1.37 | 1.33 | 0.93 | 1.03
O=C(O)/C=C/C(=O)O [compound 1167] | 0.78 | 0.99 | 0.77 | 0.98 | 1.01 | 0.78
O=C(O)CC(O)C(=O)O (centres unmarked) [compound 1169] | 0.81 | 0.98 | 0.80 | 0.90 | 1.09 | 0.88
